Source: patent EP0926242A1, “GLIOTOXIN DERIVATIVES AND ANTICANCER AGENT COMPRISING THE SAME” (priority 1996, dated 1998)

Test system: mouse carcinoma of the colon cells colon 26
Assay: Anticancer effect in vivo against colon 26 (Example 9 A)
Details: CDFI mice
Procedure: • (A) Evaluationin vivo using mouse carcinoma of the colon cells colon 26 CDFI mice (female : 4 weks age) were bought, and colon 26 subcultured in the subcutaneous tissue of the mouse was taken out, and cut into small pieces by a scissors. The cancer cells were transplanted into subcutaneous tisue of CDFI mice by a trucker. The day was assigned 0 day, and the tumor was measured by a slide caliper after 7 days. The volume of the tumor was calculated, and divided into groups (each group : n = 4). The text compound was dissolved in dimethylsulfoxide, and diluted with 5 % Tween 80- saline aqueous solution. […] The administration was carried out after 7 days, after 11 days and after 15 days or after 7 days and after 8 days from the transplantation at a rate of once per one day. 21st day from the transplantation, the volume of tumor was measured and the volume of tumor and the inhibition against tumor multiplication rate (I.R.) were calculated. The volume of tumor was calculated by the following formula. (Tumore Volume [mm)^3 (]= Minor Axis [mm])^2 × Major Axis [mm] × (1/2) [formula] • The inhibition against tumor multiplication rate (I.R.) was calculated by the following formula. I.R. [%] = {1- (Average Tumor Volume of Administration Group / Average Tumor Volume of Control Group)) × 100 [formula] • (B) Evaluation in vivo using human carcinoma of the colon cells HCT-116 Balb/c nu/nu mice (female : 5 weks age) were bought, and HCT-116 (Dainippon Seiyaku) subcultured in the subcutaneous tissue of the mouse was taken out, and cut into small pieces by a scissors. The cancer cells were transplanted into subcutaneous tissue of […] mice by a trucker. The day was assigned 0 day, and the tumor was measured by a slide caliper after 7 days. The volume of the tumor was calculated, and divided into groups (each group : n = 2). […] 21st day from the transplantation, the volume of tumor was measured and the volume of tumor and the inhibition against tumor multiplication rate (I.R.) were calculated by the above formulas.

CN1C(=O)[C@]23Cc4cccc(O)c4N2C(=O)[C@]1(CO)SS3 [Compound of Example 4, (3S, 10aR)―2,3―dihydro―6―hydroxy―3―(hydroxymethyl)― 2―methyl―10H―3,10a―epidithiopyrazino[1,2―a]indole― 1,4―dione]
day of I.R.Max (2.5[mg/kg]×3 (i.p.), 7,11,15th days): 11 days | day of I.R.Max (5 [mg/kg]×3 (i.p.), 7,11,15th days): 10 days | day of I.R.Max (10 [mg/kg]×2 (i.p.), 7,8th days): 10 days
